## Primary screen of a compound library

Sequences of proteins named here, by UniProt entry; tags and fusion partners are left off. Residues count along the entry.
UniProt Q8IDJ8, 1-583: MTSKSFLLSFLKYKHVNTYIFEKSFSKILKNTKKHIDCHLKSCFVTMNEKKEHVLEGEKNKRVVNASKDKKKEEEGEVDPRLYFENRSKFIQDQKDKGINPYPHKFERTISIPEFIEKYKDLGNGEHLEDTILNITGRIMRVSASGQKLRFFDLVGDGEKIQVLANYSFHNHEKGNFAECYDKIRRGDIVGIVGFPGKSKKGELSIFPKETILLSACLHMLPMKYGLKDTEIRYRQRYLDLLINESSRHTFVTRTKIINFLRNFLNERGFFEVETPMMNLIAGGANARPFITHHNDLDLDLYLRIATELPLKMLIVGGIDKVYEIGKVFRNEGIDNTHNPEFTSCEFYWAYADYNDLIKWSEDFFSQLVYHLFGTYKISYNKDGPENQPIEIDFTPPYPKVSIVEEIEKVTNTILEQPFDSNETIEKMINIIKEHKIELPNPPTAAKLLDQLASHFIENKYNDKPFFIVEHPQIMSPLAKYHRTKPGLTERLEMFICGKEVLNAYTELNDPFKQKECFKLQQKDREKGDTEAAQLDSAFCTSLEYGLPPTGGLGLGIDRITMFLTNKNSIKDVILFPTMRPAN
UniProt I6X8D2, whole entry: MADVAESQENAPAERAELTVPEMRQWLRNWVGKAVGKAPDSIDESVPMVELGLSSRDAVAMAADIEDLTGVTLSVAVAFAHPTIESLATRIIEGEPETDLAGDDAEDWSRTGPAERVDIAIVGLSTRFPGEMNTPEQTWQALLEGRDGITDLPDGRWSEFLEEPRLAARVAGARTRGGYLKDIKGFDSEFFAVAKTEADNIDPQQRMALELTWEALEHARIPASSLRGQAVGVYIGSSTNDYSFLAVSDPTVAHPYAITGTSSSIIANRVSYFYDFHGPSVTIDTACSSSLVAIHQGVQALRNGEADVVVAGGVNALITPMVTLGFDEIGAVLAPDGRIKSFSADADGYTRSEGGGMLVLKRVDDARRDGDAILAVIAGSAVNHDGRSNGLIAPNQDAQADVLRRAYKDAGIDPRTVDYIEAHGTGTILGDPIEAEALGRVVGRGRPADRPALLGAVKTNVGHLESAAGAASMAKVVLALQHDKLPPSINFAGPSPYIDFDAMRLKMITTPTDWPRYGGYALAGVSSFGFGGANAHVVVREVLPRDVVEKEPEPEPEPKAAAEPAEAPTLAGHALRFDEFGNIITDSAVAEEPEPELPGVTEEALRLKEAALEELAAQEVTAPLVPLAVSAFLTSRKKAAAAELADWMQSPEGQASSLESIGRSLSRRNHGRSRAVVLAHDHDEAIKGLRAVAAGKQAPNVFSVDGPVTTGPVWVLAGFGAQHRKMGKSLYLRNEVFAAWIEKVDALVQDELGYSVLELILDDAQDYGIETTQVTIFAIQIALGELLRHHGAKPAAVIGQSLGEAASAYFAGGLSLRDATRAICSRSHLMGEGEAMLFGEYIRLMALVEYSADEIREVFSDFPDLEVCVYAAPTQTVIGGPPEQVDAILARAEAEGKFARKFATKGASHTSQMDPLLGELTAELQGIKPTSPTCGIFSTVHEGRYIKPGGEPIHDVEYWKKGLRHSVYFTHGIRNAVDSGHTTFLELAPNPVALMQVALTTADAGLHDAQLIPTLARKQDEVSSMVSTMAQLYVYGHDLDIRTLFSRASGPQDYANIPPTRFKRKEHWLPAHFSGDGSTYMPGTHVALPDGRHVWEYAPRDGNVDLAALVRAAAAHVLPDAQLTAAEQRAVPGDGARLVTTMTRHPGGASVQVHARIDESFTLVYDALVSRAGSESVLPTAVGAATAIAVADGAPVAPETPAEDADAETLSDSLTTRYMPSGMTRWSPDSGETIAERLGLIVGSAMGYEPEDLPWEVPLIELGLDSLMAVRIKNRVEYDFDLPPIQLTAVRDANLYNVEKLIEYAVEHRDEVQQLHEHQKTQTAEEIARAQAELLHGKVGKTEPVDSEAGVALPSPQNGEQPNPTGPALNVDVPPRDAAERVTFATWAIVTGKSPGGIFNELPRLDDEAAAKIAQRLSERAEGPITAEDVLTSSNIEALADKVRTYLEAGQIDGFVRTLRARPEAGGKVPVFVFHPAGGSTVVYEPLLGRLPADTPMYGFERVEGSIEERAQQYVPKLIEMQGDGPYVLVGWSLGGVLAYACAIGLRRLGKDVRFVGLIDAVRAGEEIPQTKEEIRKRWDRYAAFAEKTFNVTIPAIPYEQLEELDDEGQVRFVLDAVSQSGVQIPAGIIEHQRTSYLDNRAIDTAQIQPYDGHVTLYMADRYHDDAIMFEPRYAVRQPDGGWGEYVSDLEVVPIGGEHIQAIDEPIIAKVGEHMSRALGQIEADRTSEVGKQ
UniProt P9WFT3, whole entry: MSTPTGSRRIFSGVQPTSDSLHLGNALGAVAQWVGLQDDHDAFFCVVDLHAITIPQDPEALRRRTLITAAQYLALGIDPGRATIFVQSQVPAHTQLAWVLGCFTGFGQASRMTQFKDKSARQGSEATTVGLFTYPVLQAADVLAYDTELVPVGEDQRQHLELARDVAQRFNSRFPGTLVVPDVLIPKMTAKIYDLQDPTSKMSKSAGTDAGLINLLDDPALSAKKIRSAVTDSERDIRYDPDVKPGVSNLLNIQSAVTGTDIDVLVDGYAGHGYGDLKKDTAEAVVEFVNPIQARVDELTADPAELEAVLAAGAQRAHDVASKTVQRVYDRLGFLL
UniProt Q4DA54, 1-478: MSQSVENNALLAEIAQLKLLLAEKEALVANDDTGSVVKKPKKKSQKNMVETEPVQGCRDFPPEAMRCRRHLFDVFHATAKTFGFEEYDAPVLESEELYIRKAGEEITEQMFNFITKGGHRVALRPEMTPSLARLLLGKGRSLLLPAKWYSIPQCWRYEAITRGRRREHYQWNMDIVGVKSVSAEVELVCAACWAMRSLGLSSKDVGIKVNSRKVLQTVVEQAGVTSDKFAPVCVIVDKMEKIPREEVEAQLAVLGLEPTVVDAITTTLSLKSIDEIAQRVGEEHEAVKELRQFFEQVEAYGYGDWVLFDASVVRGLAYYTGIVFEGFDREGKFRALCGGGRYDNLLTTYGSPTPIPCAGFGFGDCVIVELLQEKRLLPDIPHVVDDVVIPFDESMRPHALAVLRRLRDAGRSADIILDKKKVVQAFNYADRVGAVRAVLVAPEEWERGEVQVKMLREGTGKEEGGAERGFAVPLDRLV

PfKRS1: 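Lysine-tRNA ligase, Plasmodium falciparum 3D7 (UniProt Q8IDJ8). Enzyme assay of the cytosolic lysyl-tRNA synthetase in 384-well plates, read by luminescence. Compounds at 30 µM. Direction is inferred from only a few compounds that gave an IC50; most scored high, so higher reads as stronger inhibition. About 69,000 compounds were tested under these conditions; 0.071% (about 49) showed 50% or more at least once.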
Pks13 thioesterase: 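Enzyme assay of the thioesterase domain of polyketide synthase 13; the read-out is not stated. Target: Polyketide synthase Pks13, Mycobacterium tuberculosis (UniProt I6X8D2). Compounds at 30 µM. The record gives no direction; the compounds picked for IC50 retests had high values, so higher reads as stronger inhibition. About 67,000 compounds were tested under these conditions; 0.46% (about 300) showed 50% or more at least once.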
MtTrpRS: 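Enzyme assay of tryptophanyl-tRNA synthetase; the read-out is not stated. Target: Tryptophan-tRNA ligase, Mycobacterium tuberculosis (UniProt P9WFT3). Compounds at 10 µM. Higher most likely means stronger inhibition; the record gives no direction and few retests gave an IC50. Of about 65,000 compounds tested this way, about 64 (0.098%) reached 50% or more in at least one test.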
TcHisRS: 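Enzyme assay of histidyl-tRNA synthetase; the read-out is not stated. Target: Histidine-tRNA ligase, Trypanosoma cruzi CL Brener (UniProt Q4DA54). Concentration: 30 µM. The record gives no direction; compounds that gave an IC50 in retests scored well above the rest, so higher reads as stronger inhibition. Of about 69,000 compounds tested this way, about 31 (0.045%) reached 50% or more in at least one test.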

Each number is a percent effect as filed.
The controls that fix the scale are not given in the record; negative values are as filed.
The compounds are a random part of those screened.

For O=C(NC1CCCCC1)N1C[C@@H]2OCCN(C(=O)c3ccco3)[C@@H]2C1 the result was PfKRS1: -0.2747%; Pks13 thioesterase: 6.241%; MtTrpRS: -7.448%; TcHisRS: 4.372%. With CN(C(=O)Cc1coc(-c2ccccc2)n1)C1(C#N)CCC1 the screen gave PfKRS1: -2.413%; Pks13 thioesterase: -26.96%; MtTrpRS: 2.725%; TcHisRS: -3.185%. With Cc1oncc1C(=O)N1CC[C@H]2[C@H](C[C@@H](CN(C)C)N2CC2CC2)C1 the screen gave PfKRS1: 4.912%; Pks13 thioesterase: -5.494%; TcHisRS: 11.73%. Result for CCN(CC)c1ncc(CNC2CCc3nc(C)nn3C2)s1 (stereo not shown) was PfKRS1: 0.7193%; Pks13 thioesterase: -18.77%; MtTrpRS: -2.167%; TcHisRS: 2.762%. For O=C(NCc1ccccc1Cn1ccnc1)N1CCOCC1 the result was PfKRS1: 1.731%; Pks13 thioesterase: -12.28%; MtTrpRS: -3.367%; TcHisRS: -2.062%. For COCC(=O)N1CCC(c2cc3ncccc3c(O)n2)CC1 the result was PfKRS1: 0.8661%; Pks13 thioesterase: 7.163%; MtTrpRS: -8.157%; TcHisRS: -3.802%.

Result for Cc1ccc(NC2CCN(C(=O)CCn3nc(C)cc3C)CC2)nn1 was PfKRS1: 1.975%; Pks13 thioesterase: -19.95%; MtTrpRS: -4.68%; TcHisRS: 6.471%. CCc1nccn1C1CCCN(C(=O)c2ccnc(C)n2)C1 (stereo not shown) gave PfKRS1: 1.404%; Pks13 thioesterase: 0.0693%; MtTrpRS: 0.8244%; TcHisRS: 5.833%. With CN(C)C(=O)CN1CCC2(CCCN(Cc3cccn3C)C2)C1=O (stereo not shown) the screen gave PfKRS1: -9.116%; Pks13 thioesterase: -26.83%; MtTrpRS: -1.938%; TcHisRS: 8.197%. Fc1ccc(CN2CCc3ncnc(C4CCOC4)c3CC2)cc1 (stereo not shown) read PfKRS1: 3.856%; MtTrpRS: -2.509%; TcHisRS: 2.488%. Result for Cn1cnc2c1CCN(Cc1ccc(Cl)c3cccnc13)C2 was PfKRS1: -3.243%; Pks13 thioesterase: -2.618%; MtTrpRS: -0.516%; TcHisRS: 8.287%. For NCc1cnn(-c2ccccc2C(=O)NCc2ccccc2Cl)c1 the result was PfKRS1: 0.3879%; Pks13 thioesterase: 1.76%; TcHisRS: 4.494%.

Result for CN(Cc1cccs1)C1CCC[C@@H]2CN(C(=O)c3cccn3C)C[C@H]12 (stereo partly shown) was PfKRS1: 15.98%; Pks13 thioesterase: -29.94%; MtTrpRS: -2.05%; TcHisRS: 5.063%. With COC(=O)c1sccc1S(=O)(=O)N1CCC(Oc2cccc(C)n2)CC1 the screen gave PfKRS1: 2.786%; Pks13 thioesterase: 1.331%; MtTrpRS: 4.848%; TcHisRS: 0%. For Cc1oncc1C(=O)N1CC2CC1(C(=O)N(C)C)C2 the result was PfKRS1: 4.277%; Pks13 thioesterase: -22.9%; MtTrpRS: -2.035%; TcHisRS: 1.942%. For CN(C)S(=O)(=O)N1CCC(C)(c2ncc(C(N)=O)s2)CC1 the result was PfKRS1: 0.2288%; Pks13 thioesterase: 13.17%; MtTrpRS: -1.952%; TcHisRS: 4.887%. For CC(=O)c1cc2ncc(C(=O)NC3CCCCC3)cc2[nH]1 the result was PfKRS1: 1.386%; Pks13 thioesterase: -16.53%; TcHisRS: 7.955%. Result for O=C(C1CCN(c2snc3ccccc23)CC1)N1CCCCCC1 was PfKRS1: -0.3871%; Pks13 thioesterase: 1.668%; MtTrpRS: -0.09747%; TcHisRS: 4.135%.

For Cc1cc(C(=O)N2CCCC(c3nccn3Cc3cscn3)C2)on1 (stereo not shown) the result was PfKRS1: 0.5761%; Pks13 thioesterase: -13.82%; MtTrpRS: 1.957%; TcHisRS: 0.5025%. Cc1cc(C(=O)N2CC[C@H](N3CCOCC3)[C@H](CCCO)C2)c(C)n1C read PfKRS1: 2.831%; Pks13 thioesterase: -17.14%; MtTrpRS: -10.25%; TcHisRS: -2.186%. For Cc1cnc(NC(=O)CSC2CCc3ccccc3NC2=O)s1 (stereo not shown) the result was PfKRS1: 6.368%; Pks13 thioesterase: -41.31%; MtTrpRS: -0.4944%; TcHisRS: 6.061%. For CN(C)S(=O)(=O)c1ccc(CSCC(=O)NC(C)(C)C)o1 the result was PfKRS1: 2.451%; Pks13 thioesterase: -5.49%; MtTrpRS: 0.000008%; TcHisRS: 6.667%. Cc1nn(C)c2cn(C(C)C(=O)NCc3cccnc3)nc12 (stereo not shown) read PfKRS1: 4.77%; Pks13 thioesterase: -29.09%; MtTrpRS: 1.206%; TcHisRS: 0.5464%. For COc1ccc(CC(=O)N2CCN(C)c3ncccc3C2)cc1 the result was PfKRS1: -2.946%; Pks13 thioesterase: 2.326%; MtTrpRS: 6.988%; TcHisRS: 4.95%.

CC(O)CN(C(=O)NC1CCN(CC2CCCCC2)CC1)C(C)C (stereo not shown) read PfKRS1: 5.533%; Pks13 thioesterase: -27.27%; MtTrpRS: 0.0809%; TcHisRS: 7.772%. Result for CC(C)NC(=O)[C@@H]1C[C@@H](N)CN1C(=O)CCSCc1ccccc1 was PfKRS1: 9.193%; Pks13 thioesterase: 34.22%; MtTrpRS: -4.882%; TcHisRS: 7.071%. Cc1ccc2nc(C)c(C)c(C(=O)N3CCS(=O)(=O)CC3)c2c1 read PfKRS1: 4.582%; Pks13 thioesterase: -29.69%; MtTrpRS: -4.446%; TcHisRS: 5.587%. Result for O=c1[nH]c2csnc2c(=O)n1Cc1ccc(Br)cc1 was PfKRS1: 2.442%; Pks13 thioesterase: 6.437%; MtTrpRS: -1.54%; TcHisRS: 4.124%. For Cc1ccc(NC2CCN(C(=O)Cn3nc(C)cc3C)CC2)nn1 the result was PfKRS1: 1.249%; Pks13 thioesterase: -3.199%; MtTrpRS: 0.9434%; TcHisRS: 1.901%. Result for O=c1ccc2c(n1Cc1cccnc1)CCC(NCc1cccnc1)C2 (stereo not shown) was PfKRS1: 15.58%; Pks13 thioesterase: 7.098%; MtTrpRS: -0.7551%; TcHisRS: 5.063%.

With COc1ccccc1C(N)CC(C)C (stereo not shown) the screen gave PfKRS1: 0.1697%; Pks13 thioesterase: 0.4242%; MtTrpRS: -0.3458%; TcHisRS: 0%.

For reference, 2 entries once more:

- Cc1cnc(NC(=O)CSC2CCc3ccccc3NC2=O)s1 (stereo not shown) | PfKRS1: 6.368%; Pks13 thioesterase: -41.31%; MtTrpRS: -0.4944%; TcHisRS: 6.061%
- CN(Cc1cccs1)C1CCC[C@@H]2CN(C(=O)c3cccn3C)C[C@H]12 (stereo partly shown) | PfKRS1: 15.98%; Pks13 thioesterase: -29.94%; MtTrpRS: -2.05%; TcHisRS: 5.063%

From ChEMBL document CHEMBL3988442, “University of Dundee, Small-Polar-MMV Screening Library” (2021).